Results as given in the supplement of paper PMC10849652.
The list shows a part of the results.

Chains of the proteins cited; added tags and fusions are not shown. Lines headed by an entry give the natural chain unless they say otherwise; changes in a name come on top.
UniProt O75145: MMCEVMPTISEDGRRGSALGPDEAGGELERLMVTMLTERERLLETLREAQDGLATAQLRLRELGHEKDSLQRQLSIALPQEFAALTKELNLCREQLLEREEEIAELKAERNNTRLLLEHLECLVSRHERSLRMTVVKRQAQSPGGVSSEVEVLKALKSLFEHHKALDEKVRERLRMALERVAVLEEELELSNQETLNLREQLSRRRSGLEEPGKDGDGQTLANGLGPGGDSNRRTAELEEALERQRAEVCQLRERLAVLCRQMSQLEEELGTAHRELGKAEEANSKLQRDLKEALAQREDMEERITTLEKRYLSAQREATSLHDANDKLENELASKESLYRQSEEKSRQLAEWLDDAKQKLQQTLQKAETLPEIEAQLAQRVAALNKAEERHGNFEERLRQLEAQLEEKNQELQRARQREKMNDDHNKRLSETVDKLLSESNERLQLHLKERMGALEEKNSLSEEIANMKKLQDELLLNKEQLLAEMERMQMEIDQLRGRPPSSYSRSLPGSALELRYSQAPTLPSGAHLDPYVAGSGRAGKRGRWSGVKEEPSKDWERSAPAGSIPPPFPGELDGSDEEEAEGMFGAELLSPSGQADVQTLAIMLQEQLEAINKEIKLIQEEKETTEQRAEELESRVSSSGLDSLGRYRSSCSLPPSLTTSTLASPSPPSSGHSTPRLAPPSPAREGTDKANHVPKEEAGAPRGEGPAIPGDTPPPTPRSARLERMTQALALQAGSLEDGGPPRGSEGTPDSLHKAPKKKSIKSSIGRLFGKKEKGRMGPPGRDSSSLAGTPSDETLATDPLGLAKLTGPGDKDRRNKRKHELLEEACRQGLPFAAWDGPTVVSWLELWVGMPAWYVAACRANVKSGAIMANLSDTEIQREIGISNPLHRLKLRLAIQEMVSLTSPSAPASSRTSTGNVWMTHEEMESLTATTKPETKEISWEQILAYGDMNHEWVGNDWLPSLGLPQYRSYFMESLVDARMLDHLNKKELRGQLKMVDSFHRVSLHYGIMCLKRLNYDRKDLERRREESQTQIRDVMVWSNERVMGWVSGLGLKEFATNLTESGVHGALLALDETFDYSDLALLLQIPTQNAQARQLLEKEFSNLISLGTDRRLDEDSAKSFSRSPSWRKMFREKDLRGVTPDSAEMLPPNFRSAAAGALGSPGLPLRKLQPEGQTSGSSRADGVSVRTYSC
UniProt P62937, whole entry, looked up: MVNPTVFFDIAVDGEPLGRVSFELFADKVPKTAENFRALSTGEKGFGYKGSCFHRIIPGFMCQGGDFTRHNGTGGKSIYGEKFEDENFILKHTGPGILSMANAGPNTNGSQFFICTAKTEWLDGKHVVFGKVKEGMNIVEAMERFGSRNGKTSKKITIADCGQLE
UniProt Q9UNA4: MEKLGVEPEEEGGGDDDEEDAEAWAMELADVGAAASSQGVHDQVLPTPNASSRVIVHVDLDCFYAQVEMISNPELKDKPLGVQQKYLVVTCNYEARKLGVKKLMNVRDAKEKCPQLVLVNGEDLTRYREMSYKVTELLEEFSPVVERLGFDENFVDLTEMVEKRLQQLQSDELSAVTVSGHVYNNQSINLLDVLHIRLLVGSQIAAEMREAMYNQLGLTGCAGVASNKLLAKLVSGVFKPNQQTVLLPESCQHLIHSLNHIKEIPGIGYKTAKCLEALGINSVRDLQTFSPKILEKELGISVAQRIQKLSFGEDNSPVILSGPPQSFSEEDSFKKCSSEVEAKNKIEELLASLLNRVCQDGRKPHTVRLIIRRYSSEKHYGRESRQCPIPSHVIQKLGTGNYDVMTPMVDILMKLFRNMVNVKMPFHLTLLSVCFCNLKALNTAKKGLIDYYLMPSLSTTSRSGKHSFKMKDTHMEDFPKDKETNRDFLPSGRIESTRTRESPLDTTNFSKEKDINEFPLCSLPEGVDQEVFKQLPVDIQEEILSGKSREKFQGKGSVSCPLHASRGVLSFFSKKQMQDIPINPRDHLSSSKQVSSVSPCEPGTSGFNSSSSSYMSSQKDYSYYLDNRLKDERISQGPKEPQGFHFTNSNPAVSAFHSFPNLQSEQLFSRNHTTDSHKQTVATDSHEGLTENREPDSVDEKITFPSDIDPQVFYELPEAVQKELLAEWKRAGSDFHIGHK
UniProt Q9HBL7: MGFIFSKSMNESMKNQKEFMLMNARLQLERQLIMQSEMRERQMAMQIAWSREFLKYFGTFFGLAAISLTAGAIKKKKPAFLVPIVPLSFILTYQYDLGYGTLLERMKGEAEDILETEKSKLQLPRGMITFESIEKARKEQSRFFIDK
UniProt Q8TC44: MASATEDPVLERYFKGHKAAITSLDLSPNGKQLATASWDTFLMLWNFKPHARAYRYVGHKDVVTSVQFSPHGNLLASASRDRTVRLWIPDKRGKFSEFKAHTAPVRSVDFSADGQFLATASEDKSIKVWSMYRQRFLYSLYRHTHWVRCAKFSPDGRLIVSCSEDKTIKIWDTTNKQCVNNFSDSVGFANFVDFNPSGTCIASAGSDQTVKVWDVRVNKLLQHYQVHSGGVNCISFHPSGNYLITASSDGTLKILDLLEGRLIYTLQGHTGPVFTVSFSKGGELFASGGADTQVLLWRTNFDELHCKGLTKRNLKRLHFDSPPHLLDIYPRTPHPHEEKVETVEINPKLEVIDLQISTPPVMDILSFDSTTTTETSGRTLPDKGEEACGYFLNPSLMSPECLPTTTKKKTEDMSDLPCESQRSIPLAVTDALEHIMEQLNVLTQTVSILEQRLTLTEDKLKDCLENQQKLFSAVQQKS
UniProt O00469: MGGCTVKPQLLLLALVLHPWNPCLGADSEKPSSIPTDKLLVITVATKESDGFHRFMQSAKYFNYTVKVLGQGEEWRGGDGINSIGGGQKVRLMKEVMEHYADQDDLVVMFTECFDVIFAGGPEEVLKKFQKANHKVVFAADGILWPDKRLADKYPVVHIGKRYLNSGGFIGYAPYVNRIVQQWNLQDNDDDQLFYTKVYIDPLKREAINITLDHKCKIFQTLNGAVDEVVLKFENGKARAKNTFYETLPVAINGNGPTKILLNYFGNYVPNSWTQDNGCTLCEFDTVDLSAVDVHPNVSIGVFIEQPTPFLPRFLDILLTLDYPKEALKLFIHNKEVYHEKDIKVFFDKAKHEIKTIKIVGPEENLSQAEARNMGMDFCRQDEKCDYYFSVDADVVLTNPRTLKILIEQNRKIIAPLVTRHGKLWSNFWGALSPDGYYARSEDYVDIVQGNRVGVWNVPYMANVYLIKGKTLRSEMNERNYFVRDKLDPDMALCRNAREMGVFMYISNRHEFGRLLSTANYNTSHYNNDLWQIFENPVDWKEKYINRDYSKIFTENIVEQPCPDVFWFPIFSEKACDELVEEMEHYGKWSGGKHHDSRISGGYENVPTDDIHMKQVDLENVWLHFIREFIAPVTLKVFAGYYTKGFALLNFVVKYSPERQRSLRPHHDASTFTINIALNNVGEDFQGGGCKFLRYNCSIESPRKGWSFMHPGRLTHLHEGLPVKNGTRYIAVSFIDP
UniProt Q9Y6A1: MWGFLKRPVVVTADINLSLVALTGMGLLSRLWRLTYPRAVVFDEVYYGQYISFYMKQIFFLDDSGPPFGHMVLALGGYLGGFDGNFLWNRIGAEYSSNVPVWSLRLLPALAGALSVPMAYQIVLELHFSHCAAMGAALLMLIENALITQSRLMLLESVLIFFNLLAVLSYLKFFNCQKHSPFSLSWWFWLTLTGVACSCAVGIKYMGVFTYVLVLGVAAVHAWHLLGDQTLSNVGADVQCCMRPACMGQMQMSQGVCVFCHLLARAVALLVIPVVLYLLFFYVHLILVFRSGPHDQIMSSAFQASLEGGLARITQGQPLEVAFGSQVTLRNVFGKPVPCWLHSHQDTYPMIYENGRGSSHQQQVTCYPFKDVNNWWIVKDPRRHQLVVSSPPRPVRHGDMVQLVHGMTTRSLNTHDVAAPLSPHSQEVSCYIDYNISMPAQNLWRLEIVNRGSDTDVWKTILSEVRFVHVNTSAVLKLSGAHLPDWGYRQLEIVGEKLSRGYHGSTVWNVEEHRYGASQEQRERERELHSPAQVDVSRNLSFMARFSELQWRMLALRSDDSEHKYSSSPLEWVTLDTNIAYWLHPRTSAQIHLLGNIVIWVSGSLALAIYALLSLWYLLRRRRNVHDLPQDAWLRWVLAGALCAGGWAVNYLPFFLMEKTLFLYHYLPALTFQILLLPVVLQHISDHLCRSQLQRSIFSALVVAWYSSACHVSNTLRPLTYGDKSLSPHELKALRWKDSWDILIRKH
UniProt P51805: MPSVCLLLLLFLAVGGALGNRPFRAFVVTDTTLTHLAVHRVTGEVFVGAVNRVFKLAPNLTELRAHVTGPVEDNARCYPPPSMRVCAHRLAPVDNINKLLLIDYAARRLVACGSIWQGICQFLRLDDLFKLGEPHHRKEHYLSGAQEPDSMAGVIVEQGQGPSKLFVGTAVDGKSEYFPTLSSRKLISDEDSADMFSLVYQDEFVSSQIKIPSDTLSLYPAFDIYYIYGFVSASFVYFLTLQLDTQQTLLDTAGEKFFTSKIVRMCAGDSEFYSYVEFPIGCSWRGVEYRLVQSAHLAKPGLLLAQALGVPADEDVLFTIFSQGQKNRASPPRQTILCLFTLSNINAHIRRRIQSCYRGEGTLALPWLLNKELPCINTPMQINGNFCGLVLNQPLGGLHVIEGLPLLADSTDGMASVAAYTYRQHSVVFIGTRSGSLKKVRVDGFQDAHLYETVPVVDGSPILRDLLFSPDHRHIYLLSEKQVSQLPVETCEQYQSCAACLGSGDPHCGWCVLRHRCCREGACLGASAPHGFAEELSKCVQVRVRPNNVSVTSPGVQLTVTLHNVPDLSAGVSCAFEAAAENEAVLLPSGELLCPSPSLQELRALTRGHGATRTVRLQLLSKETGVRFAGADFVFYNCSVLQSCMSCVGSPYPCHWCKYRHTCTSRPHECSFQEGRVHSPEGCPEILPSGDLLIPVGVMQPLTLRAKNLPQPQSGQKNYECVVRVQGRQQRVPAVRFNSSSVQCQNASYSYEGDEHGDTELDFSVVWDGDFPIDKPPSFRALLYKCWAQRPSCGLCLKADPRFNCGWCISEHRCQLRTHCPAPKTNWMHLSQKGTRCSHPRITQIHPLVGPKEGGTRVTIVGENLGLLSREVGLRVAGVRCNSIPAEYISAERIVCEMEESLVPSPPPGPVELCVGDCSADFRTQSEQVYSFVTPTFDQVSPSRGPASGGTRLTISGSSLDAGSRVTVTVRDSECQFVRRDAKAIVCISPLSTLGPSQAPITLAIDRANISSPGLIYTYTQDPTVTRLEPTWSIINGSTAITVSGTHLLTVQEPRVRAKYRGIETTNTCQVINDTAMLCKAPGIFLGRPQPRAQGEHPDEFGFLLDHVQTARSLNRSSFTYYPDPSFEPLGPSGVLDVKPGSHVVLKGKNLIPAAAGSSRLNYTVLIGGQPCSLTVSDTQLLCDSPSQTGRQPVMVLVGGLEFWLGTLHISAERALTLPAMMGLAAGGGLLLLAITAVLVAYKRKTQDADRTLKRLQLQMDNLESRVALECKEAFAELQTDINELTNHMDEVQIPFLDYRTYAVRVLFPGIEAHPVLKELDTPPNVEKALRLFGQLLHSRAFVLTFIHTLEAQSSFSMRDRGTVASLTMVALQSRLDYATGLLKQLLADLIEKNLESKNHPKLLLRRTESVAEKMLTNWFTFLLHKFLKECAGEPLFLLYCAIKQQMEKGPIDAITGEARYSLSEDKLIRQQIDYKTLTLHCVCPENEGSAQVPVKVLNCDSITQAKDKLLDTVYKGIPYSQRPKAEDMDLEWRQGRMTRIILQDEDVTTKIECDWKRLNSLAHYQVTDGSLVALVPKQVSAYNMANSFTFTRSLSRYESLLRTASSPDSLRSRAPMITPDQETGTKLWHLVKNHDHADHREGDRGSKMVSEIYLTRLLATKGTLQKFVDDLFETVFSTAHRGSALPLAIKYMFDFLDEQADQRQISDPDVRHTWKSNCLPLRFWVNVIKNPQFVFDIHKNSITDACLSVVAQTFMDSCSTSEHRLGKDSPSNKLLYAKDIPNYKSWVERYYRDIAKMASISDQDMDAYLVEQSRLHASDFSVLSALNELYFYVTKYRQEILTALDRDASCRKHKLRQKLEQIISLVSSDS
UniProt Q9NW61: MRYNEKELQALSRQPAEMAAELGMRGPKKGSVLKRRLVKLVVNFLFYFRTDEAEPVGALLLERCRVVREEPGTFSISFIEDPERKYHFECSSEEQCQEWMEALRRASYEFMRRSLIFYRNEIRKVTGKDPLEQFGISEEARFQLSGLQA
UniProt P11086: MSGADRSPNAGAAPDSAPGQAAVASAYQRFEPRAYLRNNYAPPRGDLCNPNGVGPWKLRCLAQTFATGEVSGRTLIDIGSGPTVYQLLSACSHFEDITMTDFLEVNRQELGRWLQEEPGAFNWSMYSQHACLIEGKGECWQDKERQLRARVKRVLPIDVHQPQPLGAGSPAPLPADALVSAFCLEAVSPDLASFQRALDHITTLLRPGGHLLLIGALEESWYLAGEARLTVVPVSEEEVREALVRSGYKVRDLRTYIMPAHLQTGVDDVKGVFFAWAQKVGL

How the values were obtained:
Experiment in all cases: log2 fold change, soluble protein after heating vs DMSO (PISA); higher = thermal stabilisation; K562 lysate, 10 uM; active = over 0.2 and 3.5 SD of the protein, either way, in both replicates (recomputed)
[1] = compound: Cc1cn(-c2cc(NC(=O)c3ccc(C)c(Nc4nccc(-c5cccnc5)n4)c3)cc(C(F)(F)F)c2)cn1 [nilotinib]
Summary of the method: (§1)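 Following dounce homogenisation of K562 pellets in PBS pH 7.4 with 1 mM MgCl2, crude extract at 1 mg/mL protein was incubated for 30 min with 10 μM compound. Aliquots were then heated for 3 min over 48°C-58°C and pooled, NP-40 was added to 0.5% at 4°C, and soluble protein was recovered as the supernatant at 21,000xg for 90 min. Channel-sum-equalised TMTpro 16plex LC-MS/MS quantified this protein. Each value, from duplicates, is a log-two fold change in thermal stability relative to solvent controls.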

[2] = compound: Cc1nc(Nc2n[nH]c3c2CN(C(=O)N[C@H](CN(C)C)c2ccccc2)C3(C)C)c2sccc2n1
Summary of the method: as §1

[3] = compound: Cc1nc(Nc2ncc(C(=O)Nc3c(C)cccc3Cl)s2)cc(N2CCN(CCO)CC2)n1 [dasatinib]
Summary of the method: as §1

[4] = compound: Cc1ncc(-c2ccnc(Nc3ccc(S(C)(=O)=O)cc3)n2)n1C(C)C
Summary of the method: as §1

[5] = compound: Cn1cc(-c2ccc3c(c2)CCN3C(=O)Cc2cccc(C(F)(F)F)c2)c2c(N)ncnc21
Summary of the method: as §1

[6] = compound: Cn1cncc1[C@@](N)(c1ccc(Cl)cc1)c1ccc2c(c1)c(-c1cccc(Cl)c1)cc(=O)n2C [tipifarnib]
Summary of the method: as §1

[7] = compound: NC(=O)c1cnc(N[C@@H]2CCCC[C@@H]2N)nc1Nc1cccc(-n2nccn2)c1
Summary of the method: as §1

[8] = compound: NC1(c2ccc(-c3nc4ccn5c(=O)[nH]nc5c4cc3-c3ccccc3)cc2)CCC1
Summary of the method: as §1

[9] = compound: NCC(=O)Nc1ccc(-n2nc(C(F)(F)F)cc2-c2ccc3c(ccc4ccccc43)c2)cc1
Summary of the method: as §1

[10] = compound: O=C(CCCCCCC(=O)Nc1ccccc1)NO [vorinostat]
Summary of the method: as §1

[11] = compound: O=C(O)c1ccc2c(c1)nc(Nc1cccc(Cl)c1)c1ccncc12 [silmitasertib]
Summary of the method: as §1

[12] = compound: c1cn2cc(-c3ccc4cn[nH]c4c3)nc(Nc3ccc(N4CCOCC4)cc3)c2n1 [entospletinib]
Summary of the method: as §1

[13] = compound: Cn1cc(CNCC2CCN(c3ncc(C(=O)NO)cn3)CC2)c2ccccc21 [quisinostat]
Summary of the method: as §1

[14] = compound: NC(=O)Nc1cc(-c2cccc(F)c2)sc1C(=O)N[C@H]1CCCNC1
Summary of the method: as §1

[15] = compound: O=C1NC(=O)C(c2cnc3ccccn23)=C1c1cn2c3c(cc(F)cc13)CN(C(=O)N1CCCCC1)CC2
Summary of the method: as §1

Measured: log2 fold change

PPFIA3 (UniProt O75145)
inactive: [1] -0.048 | [2] -0.16 | [3] -0.035 | [4] 0.019 | [5] -0.02 | [6] 0.057 | [7] -0.091 | [8] -0.034 | [9] -0.119 | [10] 0.017 | [11] 0.025

PPHLN1 isoform 3 (UniProt Q8NEY8)
inactive: [9] -0.271

POLR2F (UniProt U3KPV3)
inactive: [3] -0.024 | [5] 0.038 | [12] -0.113

PPIA isoform 2 (UniProt P62937)
inactive: [1] -0.088 | [2] 0.043 | [4] 0.033 | [6] -0.139

POLI (UniProt Q9UNA4)
inactive: [1] 0.04 | [2] -0.026 | [4] -0.209 | [13] -0.046 | [6] 0.032 | [14] 0.172 | [15] -0.047

PPFIBP2 (UniProt Q8ND30)
inactive: [12] 0.201

POF1B isoform 1 (UniProt Q8WVV4)
inactive: [3] -0.024 | [5] -0.265

POM121 (UniProt Q96HA1)
inactive: [3] -0.077 | [5] -0.122 | [13] -0.153 | [14] -0.005 | [7] 0.039 | [8] 0.042 | [9] 0.18 | [10] 0.005 | [11] -0.069 | [15] 0.015 | [12] 0.135

POLR2K (UniProt P53803)
inactive: [3] -0.067 | [5] -0.137 | [13] 0.041 | [14] -0.034 | [9] -0.08 | [15] -0.193 | [12] 0.025

POLG2 (UniProt J3KRM2)
inactive: [1] 0.052 | [2] 0.04 | [4] -0.001 | [6] -0.115 | [7] 0.096 | [8] -0.118 | [10] 0.25 | [11] -0.171

POSTN (UniProt Q15063)
inactive: [13] -0.219 | [14] 0.053 | [8] -0.009 | [9] -0.096 | [10] -0.156 | [11] -0.05 | [15] 0.062 | [12] 0.008

PLPPR3 isoform 3 (UniProt Q6T4P5)
inactive: [3] -0.165 | [5] -0.409

POMK (UniProt Q9H5K3)
inactive: [3] -0.063 | [5] 0.037 | [13] 0.027 | [14] 0.036 | [8] 0.014 | [9] -0.067 | [10] 0.079 | [11] 0.016 | [15] 0.02 | [12] -0.004

PNPLA4 (UniProt P41247)
inactive: [3] 0.099 | [5] 0.194 | [13] 0.048 | [14] 0.037 | [9] -0.012 | [15] -0.093 | [12] -0.046

PLSCR3 (UniProt Q9NRY6)
inactive: [3] 0.163 | [5] 0.062 | [13] 0.014 | [14] -0.007 | [7] 0.04 | [9] 0.136 | [15] -0.145 | [12] -0.068

PLGRKT (UniProt Q9HBL7)
inactive: [1] 0.028 | [2] 0.003 | [3] -0.173 | [4] -0.083 | [5] 0 | [13] -0.014 | [6] -0.067 | [14] 0.078 | [8] 0.001 | [9] -0.06 | [10] 0.034 | [11] -0.001 | [15] 0.073 | [12] -0.154

PLEKHM1 (UniProt Q9Y4G2)
inactive: [13] -0.059 | [14] 0.026 | [8] 0.094 | [9] -0.096 | [10] -0.104 | [11] -0.096 | [15] 0.009 | [12] -0.125

PPHLN1 (UniProt Q8NEY8)
inactive: [1] 0.073 | [2] -0.057 | [4] 0.026 | [13] 0.067 | [6] -0.052 | [14] -0.054 | [7] 0.028 | [8] -0.04 | [9] 0.039 | [10] -0.141 | [11] -0.018 | [15] 0.053 | [12] -0.002

PLEKHG4 (UniProt Q58EX7)
inactive: [1] -0.037 | [2] 0.09 | [3] -0.003 | [4] 0.024 | [5] -0.011 | [13] -0.017 | [6] 0.237 | [14] 0.096 | [9] -0.017 | [15] -0.018 | [12] -0.056

POC1B (UniProt Q8TC44)
inactive: [3] 0.026 | [5] 0.185 | [8] -0.167 | [9] 0.108 | [10] -0.081 | [11] 0.009 | [12] 0.042

PLTP (UniProt P55058)
inactive: [1] -0.067 | [2] -0.031 | [3] -0.004 | [4] 0.01 | [5] 0.087 | [6] -0.078 | [8] 0.007 | [9] 0.093 | [10] 0.103 | [11] -0.069

PLOD2 isoform 2 (UniProt O00469)
inactive: [3] 0.301 | [5] -0.328 | [9] -0.103 | [12] -0.165

PML isoform 11 (UniProt P29590)
inactive: [3] -0.028 | [5] 0.085 | [9] 0.032 | [12] -0.003

POMT1 (UniProt Q9Y6A1)
inactive: [3] -0.097 | [5] 0.045 | [7] -0.037

Two records drawn at random from those above, as already listed:
POLR2F (UniProt U3KPV3)
inactive: [3] -0.024 | [5] 0.038 | [12] -0.113

PPIA isoform 2 (UniProt P62937)
inactive: [1] -0.088 | [2] 0.043 | [4] 0.033 | [6] -0.139

Following part

POLK (UniProt Q9UBT6)
inactive: [1] -0.153 | [2] 0.009 | [4] 0.021 | [6] -0.123 | [7] 0.101

PNMA8A (UniProt Q86V59)
inactive: [1] -0.016 | [2] 0.173 | [3] -0.068 | [4] -0.006 | [5] -0.026 | [6] -0.055 | [7] -0.124 | [8] -0.092 | [10] 0.026 | [11] 0.021 | [12] -0.056

PORCN (UniProt Q9H237)
inactive: [1] 0.156 | [2] -0.602 | [4] 0.35 | [6] -0.029

PLXNA3 (UniProt P51805)
inactive: [13] -0.292 | [14] 0.131 | [7] 0.062 | [8] -0.079 | [9] 0.126 | [10] 0.009 | [11] -0.088 | [15] 0.118 | [12] -0.068

PLEKHJ1 (UniProt Q9NW61)
inactive: [13] -0.022 | [14] 0.054 | [8] 0.019 | [10] -0.188 | [11] 0.025 | [15] 0.049

PPARGC1B (UniProt Q86YN6)
inactive: [8] 0 | [10] -0.029 | [11] -0.094

POC1A (UniProt Q8NBT0)
inactive: [1] -0.216 | [2] 0.085 | [4] 0.046 | [13] 0.189 | [6] 0.094 | [14] -0.007 | [7] 0.167 | [9] -0.163 | [15] -0.4 | [12] -0.142

PNMT (UniProt P11086)
inactive: [13] -0.181 | [14] 0.085 | [7] -0.021 | [8] -0.062 | [9] 0.324 | [10] -0.121 | [11] -0.053 | [15] 0.372

POLR2M (UniProt Q6EEV4)
inactive: [3] 0.02 | [5] -0.2 | [13] 0.011 | [14] 0.032 | [7] -0.015 | [8] 0.076 | [9] 0.146 | [10] -0.019 | [11] -0.069 | [15] 0.06 | [12] -0.022

PLEKHH2 (UniProt E5RGK1)
inactive: [3] 0.036 | [5] 0.033 | [13] -0.075 | [14] 0.022 | [7] 0.036 | [9] 0.089 | [15] -0.019 | [12] 0.256

PM20D2 (UniProt Q8IYS1)
inactive: [7] -0.026 | [9] -0.034 | [12] -0.391

PPFIBP1 (UniProt Q86W92)
inactive: [13] 0.012 | [14] -0.003 | [15] 0.126 | [12] -0.019

PLXNB1 (UniProt O43157)
inactive: [1] -0.001 | [2] -0.05 | [3] -0.152 | [4] 0.062 | [5] 0.223 | [13] 0.036 | [6] 0.004 | [14] -0.079 | [8] -0.004 | [10] 0.048 | [11] 0.004 | [15] -0.006
